± gives the standard deviation of the averaged measurements. The entries are a selection whose mix differs from that of the whole data set.
Compound: Nc1ncnc2c1ncn2[C@@H]1O[C@H](COP(=O)(O)OP(=O)(O)OP(=O)(O)O)[C@@H](O)[C@H]1O [adenosine triphosphate]
Assay: NP40-soluble protein abundance relative to vehicle (solubility fold change) (ratio); higher = more soluble protein in presence of ATP
Method in brief: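 Values are fold changes against the detergent-processed vehicle, based on vsn-normalised intensities. Jurkat crude lysate was treated at eight concentrations from 0.1 to 10 mM (10 min at room temperature, then 3 min at 37 °C), solubilised with 0.8% NP40 and benzonase, ultracentrifuged and analysed by TMT-labelled LC-MS/MS over three independent experiments.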

By UniProt entry, the sequences of proteins in these tests, tags left out. Where a name states a change or a piece, a line headed by the entry shows the natural chain unless it says otherwise.
UniProt Q5SVZ6: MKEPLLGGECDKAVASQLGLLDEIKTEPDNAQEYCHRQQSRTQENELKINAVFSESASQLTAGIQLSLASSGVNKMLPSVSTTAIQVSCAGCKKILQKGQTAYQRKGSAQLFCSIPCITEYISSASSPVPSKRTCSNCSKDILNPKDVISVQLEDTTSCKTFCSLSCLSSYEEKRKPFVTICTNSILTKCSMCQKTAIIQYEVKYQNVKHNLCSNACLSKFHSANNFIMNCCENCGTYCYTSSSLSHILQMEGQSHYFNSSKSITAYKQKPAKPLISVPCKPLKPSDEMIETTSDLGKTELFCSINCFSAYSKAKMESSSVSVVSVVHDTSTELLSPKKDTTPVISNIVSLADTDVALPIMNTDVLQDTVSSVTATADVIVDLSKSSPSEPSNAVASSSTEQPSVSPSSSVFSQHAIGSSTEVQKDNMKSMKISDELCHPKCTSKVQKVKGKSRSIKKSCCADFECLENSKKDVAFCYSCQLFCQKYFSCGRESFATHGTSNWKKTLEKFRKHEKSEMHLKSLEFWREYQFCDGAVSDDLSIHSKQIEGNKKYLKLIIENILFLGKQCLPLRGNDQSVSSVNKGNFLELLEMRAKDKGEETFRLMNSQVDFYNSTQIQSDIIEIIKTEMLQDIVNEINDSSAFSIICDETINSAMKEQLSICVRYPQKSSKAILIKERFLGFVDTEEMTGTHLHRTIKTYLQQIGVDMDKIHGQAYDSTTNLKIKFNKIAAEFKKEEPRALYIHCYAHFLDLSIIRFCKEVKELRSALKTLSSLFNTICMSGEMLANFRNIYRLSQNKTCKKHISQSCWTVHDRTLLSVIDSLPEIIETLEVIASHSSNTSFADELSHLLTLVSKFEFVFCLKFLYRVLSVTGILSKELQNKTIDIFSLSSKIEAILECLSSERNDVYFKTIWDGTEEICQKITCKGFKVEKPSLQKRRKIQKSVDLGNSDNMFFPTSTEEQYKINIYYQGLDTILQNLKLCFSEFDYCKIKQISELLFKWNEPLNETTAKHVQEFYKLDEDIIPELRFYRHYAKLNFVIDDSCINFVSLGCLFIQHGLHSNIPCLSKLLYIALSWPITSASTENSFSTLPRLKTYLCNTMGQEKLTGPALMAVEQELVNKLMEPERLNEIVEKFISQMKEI
UniProt Q5SRI9: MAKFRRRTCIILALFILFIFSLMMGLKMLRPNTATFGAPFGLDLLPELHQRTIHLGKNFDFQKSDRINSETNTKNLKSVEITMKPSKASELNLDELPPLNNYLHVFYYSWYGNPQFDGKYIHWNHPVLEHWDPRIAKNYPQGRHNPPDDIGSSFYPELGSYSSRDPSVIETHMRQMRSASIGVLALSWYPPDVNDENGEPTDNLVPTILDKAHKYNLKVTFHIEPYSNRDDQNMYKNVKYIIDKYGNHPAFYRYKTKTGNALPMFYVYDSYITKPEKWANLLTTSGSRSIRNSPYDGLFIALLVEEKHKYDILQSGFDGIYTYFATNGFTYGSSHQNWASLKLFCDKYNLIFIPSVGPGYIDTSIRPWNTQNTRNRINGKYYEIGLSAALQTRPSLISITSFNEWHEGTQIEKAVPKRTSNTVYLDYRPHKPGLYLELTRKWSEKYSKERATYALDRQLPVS
UniProt Q6IBS0: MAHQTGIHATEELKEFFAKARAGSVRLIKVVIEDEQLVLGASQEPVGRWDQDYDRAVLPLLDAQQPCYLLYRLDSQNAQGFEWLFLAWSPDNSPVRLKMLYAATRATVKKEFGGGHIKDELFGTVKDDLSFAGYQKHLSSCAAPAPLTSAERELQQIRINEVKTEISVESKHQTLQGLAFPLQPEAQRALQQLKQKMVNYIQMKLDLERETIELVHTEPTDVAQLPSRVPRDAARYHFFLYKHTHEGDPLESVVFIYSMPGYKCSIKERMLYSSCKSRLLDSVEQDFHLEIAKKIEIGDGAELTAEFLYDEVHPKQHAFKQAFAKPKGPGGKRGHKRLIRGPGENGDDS
UniProt Q6MZP7: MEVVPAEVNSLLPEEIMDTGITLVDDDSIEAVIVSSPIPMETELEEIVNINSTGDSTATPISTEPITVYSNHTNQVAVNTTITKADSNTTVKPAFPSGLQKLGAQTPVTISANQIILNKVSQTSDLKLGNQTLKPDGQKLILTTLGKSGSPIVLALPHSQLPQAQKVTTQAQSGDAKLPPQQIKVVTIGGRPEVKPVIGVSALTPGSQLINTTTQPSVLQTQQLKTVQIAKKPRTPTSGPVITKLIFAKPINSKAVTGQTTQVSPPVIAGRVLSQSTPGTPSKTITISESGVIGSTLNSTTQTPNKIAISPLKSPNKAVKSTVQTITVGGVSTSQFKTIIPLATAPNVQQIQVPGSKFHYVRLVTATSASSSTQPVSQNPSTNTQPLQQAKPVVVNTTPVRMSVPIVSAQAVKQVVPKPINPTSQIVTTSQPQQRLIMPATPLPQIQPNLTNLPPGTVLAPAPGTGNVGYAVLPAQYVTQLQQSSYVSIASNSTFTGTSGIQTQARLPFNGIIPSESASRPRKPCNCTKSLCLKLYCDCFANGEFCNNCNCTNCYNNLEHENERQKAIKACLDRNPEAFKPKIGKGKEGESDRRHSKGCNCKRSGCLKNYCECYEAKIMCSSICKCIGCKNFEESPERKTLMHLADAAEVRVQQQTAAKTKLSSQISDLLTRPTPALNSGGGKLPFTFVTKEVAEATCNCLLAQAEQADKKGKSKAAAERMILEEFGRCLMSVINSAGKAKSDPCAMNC
UniProt Q68DH5: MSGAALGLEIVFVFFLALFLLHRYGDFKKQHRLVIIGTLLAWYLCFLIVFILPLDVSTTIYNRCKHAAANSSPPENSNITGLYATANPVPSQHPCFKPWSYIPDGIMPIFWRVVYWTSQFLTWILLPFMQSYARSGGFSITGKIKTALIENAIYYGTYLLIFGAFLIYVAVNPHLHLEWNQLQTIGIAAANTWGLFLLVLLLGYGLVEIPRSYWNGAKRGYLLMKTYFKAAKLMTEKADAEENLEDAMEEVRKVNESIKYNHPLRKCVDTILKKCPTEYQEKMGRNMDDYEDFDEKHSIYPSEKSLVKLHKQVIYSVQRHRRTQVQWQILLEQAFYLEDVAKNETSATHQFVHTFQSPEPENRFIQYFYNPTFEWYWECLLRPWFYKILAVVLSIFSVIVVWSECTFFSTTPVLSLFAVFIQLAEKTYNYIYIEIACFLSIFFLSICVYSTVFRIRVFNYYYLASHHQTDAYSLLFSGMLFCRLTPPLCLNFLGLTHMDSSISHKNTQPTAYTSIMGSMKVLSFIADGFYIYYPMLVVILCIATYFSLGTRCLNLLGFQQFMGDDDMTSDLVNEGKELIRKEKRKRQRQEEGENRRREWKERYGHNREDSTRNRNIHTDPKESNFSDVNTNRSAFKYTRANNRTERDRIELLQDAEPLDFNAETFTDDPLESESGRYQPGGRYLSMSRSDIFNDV
UniProt Q5TA45, whole entry: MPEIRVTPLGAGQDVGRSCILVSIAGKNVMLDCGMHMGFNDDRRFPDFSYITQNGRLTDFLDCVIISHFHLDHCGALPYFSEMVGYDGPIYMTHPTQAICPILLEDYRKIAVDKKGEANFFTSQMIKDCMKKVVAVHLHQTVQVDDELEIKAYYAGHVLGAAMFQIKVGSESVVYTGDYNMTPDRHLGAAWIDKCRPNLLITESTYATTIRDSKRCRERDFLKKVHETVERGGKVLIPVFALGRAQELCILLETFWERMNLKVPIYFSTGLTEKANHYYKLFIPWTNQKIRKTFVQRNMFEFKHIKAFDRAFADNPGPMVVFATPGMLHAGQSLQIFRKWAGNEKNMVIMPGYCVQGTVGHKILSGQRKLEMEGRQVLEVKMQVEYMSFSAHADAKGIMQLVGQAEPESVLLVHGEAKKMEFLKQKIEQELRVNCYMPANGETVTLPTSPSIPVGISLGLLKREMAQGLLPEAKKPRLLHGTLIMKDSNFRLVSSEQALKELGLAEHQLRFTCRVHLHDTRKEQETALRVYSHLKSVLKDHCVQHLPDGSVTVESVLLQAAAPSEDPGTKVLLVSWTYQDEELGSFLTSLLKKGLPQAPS
UniProt Q9BZJ0: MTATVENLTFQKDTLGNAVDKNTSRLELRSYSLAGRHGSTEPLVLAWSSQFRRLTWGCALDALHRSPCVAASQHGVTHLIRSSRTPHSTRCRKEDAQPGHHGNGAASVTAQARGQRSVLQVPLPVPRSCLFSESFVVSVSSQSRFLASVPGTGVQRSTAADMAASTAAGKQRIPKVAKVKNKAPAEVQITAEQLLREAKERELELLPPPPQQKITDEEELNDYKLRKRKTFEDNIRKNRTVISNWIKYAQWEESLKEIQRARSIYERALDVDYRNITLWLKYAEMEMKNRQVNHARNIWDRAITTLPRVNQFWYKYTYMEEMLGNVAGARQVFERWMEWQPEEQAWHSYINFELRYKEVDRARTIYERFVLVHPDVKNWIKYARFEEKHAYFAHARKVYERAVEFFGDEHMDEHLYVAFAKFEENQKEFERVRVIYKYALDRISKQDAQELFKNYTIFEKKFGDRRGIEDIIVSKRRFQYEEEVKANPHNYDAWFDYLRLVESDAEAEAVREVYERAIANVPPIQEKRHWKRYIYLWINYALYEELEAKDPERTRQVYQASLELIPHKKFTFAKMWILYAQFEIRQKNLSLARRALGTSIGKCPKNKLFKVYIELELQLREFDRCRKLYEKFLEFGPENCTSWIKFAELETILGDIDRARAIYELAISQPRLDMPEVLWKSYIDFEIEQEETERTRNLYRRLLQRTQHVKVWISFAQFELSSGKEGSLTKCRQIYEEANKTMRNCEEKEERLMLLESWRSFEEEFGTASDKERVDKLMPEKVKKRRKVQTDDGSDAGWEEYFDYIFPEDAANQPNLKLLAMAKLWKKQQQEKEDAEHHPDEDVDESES
UniProt Q5RKV6, whole entry: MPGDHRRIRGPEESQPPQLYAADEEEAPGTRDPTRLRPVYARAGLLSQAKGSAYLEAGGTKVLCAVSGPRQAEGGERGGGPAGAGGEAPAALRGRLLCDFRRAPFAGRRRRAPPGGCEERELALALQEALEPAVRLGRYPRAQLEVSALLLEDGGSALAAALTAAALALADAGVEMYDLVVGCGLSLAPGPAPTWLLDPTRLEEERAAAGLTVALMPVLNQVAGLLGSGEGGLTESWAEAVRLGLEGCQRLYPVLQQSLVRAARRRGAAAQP
UniProt Q6IE81, whole entry: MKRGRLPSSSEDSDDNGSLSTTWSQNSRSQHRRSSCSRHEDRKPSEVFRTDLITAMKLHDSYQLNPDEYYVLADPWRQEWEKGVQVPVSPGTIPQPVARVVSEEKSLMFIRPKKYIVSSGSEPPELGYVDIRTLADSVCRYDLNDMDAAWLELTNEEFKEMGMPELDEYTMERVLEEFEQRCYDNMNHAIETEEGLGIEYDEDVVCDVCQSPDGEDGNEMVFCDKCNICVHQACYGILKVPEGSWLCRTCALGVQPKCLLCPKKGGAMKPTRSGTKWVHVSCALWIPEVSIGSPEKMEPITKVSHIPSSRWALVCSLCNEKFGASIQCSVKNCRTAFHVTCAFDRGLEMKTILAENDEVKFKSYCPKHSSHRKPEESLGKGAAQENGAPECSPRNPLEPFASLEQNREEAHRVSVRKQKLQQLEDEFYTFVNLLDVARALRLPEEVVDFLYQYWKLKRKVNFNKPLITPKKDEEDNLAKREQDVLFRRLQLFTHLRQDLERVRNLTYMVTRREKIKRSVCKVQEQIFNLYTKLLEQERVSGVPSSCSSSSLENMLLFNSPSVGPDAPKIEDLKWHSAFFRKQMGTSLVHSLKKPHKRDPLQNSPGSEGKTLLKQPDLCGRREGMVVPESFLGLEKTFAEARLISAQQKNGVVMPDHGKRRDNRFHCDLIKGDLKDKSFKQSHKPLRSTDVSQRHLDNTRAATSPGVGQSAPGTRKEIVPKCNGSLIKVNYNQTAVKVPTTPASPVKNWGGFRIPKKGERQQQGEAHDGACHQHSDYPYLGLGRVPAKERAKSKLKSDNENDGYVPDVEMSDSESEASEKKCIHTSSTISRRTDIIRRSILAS
UniProt Q5VWP2: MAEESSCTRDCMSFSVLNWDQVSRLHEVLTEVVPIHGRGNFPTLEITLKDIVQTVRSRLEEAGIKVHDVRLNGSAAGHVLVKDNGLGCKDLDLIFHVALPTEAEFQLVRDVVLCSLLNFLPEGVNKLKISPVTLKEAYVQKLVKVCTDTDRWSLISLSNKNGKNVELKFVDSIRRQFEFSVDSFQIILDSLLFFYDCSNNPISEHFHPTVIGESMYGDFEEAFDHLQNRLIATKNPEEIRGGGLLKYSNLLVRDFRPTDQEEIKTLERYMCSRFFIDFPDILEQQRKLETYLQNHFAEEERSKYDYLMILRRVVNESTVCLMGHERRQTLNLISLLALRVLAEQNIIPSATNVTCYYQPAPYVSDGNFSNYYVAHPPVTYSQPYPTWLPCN

Target	NP40-soluble protein abundance (concentration: 1mM)	NP40-soluble protein abundance (concentration: 2mM)	NP40-soluble protein abundance (concentration: 4mM)	NP40-soluble protein abundance (concentration: 6mM)	NP40-soluble protein abundance (concentration: 8mM)	NP40-soluble protein abundance (concentration: 10mM)
ZMYM1 (UniProt Q5SVZ6)	1.03 ± 0.055	1.02 ± 0.067	1.06 ± 0.053	1.06 ± 0.04	1.09 ± 0.039	1.1 ± 0.044
MANEA (UniProt Q5SRI9)	0.913 ± 0.11	0.903 ± 0.1	0.973 ± 0.14	0.892 ± 0.12	0.8755 ± 0.0042	0.914 ± 0.013
UniProt Q6DHV7-2|Q6DHV7 and related entries	0.989 ± 0.027	1 ± 0.018	0.985 ± 0.034	1.08 ± 0.057	0.943 ± 0.13	0.9496 ± 0.0053
UniProt Q5T4F4-2|Q5T4F4-7|Q5T4F4-8|Q5T4F4 and related entries	0.946 ± 0.14	0.956 ± 0.13	0.938 ± 0.069	0.923 ± 0.15	0.924 ± 0.18	1.02 ± 0.065
PHLDB3 (UniProt Q6NSJ2)	1.06 ± 0.16	1.03 ± 0.1	1.05 ± 0.084	1.05 ± 0.11	1.04 ± 0.11	1.05 ± 0.05
UniProt Q68DK2 and related entries	0.966 ± 0.078	0.999 ± 0.093	0.988 ± 0.065	0.927 ± 0.033	1.02 ± 0.042	1.06 ± 0.014
TWF2 (UniProt Q6IBS0)	1.02 ± 0.11	0.992 ± 0.055	0.95 ± 0.031	0.927 ± 0.075	0.978 ± 0.038	0.969 ± 0.039
UniProt Q53GT1 and related entries	1.02 ± 0.21	0.874 ± 0.03	0.827 ± 0.11	0.958 ± 0.16	0.876 ± 0.14	0.898 ± 0.12
AMOT (UniProt Q4VCS5)	0.934 ± 0.047	0.988 ± 0.099	1.03 ± 0.031	1.06 ± 0.099	1.04 ± 0.021	1.09 ± 0.099
UniProt Q6MZP7 and related entries	1.04 ± 0.061	1.02 ± 0.058	1.03 ± 0.07	1.08 ± 0.089	1.05 ± 0.086	1.09 ± 0.045
LMBRD2 (UniProt Q68DH5)	1.02 ± 0.074	1.02 ± 0.063	1 ± 0.1	1.05 ± 0.083	0.998 ± 0.1	1.03 ± 0.13
UniProt Q5TA45 and related entries	1.07 ± 0.12	1.04 ± 0.032	1.07 ± 0.023	0.984 ± 0.029	1.08 ± 0.037	1.12 ± 0.029
HS1BP3 (UniProt Q53T59)	1.05 ± 0.025	1.04 ± 0.035	1.06 ± 0.049	1.01 ± 0.017	1 ± 0.038	0.995 ± 0.063
UniProt Q5TCQ9 and related entries	1.11 ± 0.18	1.04 ± 0.21	1.05 ± 0.2	1.11 ± 0.25	1.03 ± 0.29	1.07 ± 0.16
Q5JY65 and related entries (UniProt Q9BZJ0)	1.04 ± 0.062	1.01 ± 0.034	1.01 ± 0.025	0.985 ± 0.045	1.01 ± 0.034	1.04 ± 0.068
PRPF8 (UniProt Q6P2Q9)	1.19 ± 0.11	1.19 ± 0.043	1.288 ± 0.011	1.241 ± 0.0059	1.58 ± 0.054	1.52 ± 0.12
EXOSC6 (UniProt Q5RKV6)	0.977 ± 0.054	1 ± 0.025	1.05 ± 0.042	1.11 ± 0.065	1.13 ± 0.072	1.12 ± 0.075
UniProt Q6IE81 and related entries	1.14 ± 0.21	1.2 ± 0.12	1.29 ± 0.15	1.16 ± 0.26	1.15 ± 0.25	1.23 ± 0.24
RNF123 (UniProt Q5XPI4)	0.968 ± 0.048	0.9298 ± 0.004	0.914 ± 0.034	0.877 ± 0.028	0.969 ± 0.047	0.953 ± 0.023
UniProt Q5TKA1 and related entries	1 ± 0.033	1.04 ± 0.051	1.03 ± 0.051	1.07 ± 0.057	1.06 ± 0.039	1.09 ± 0.039
PITRM1 (UniProt Q5JRX3)	1.01 ± 0.045	0.991 ± 0.051	0.979 ± 0.038	0.974 ± 0.075	0.974 ± 0.026	0.972 ± 0.059
UniProt Q5VWP2	0.948 ± 0.17	1.05 ± 0.093	1.06 ± 0.033	1.01 ± 0.13	1.04 ± 0.056	1 ± 0.055
UniProt Q6ICG6 and related entries	1.06 ± 0.077	0.994 ± 0.052	0.959 ± 0.017	0.973 ± 0.015	0.98 ± 0.074	1.03 ± 0.073
UniProt Q58WW2 and related entries	0.948 ± 0.032	0.9751 ± 0.0066	0.985 ± 0.025	0.993 ± 0.036	0.967 ± 0.033	1 ± 0.088
UniProt Q5T5C0 and related entries	1.03 ± 0.077	1.01 ± 0.03	1 ± 0.095	0.996 ± 0.031	0.993 ± 0.14	0.988 ± 0.038
HABP4 (UniProt Q5JVS0)	1.26 ± 0.073	1.361 ± 0.0042	1.4 ± 0.1	1.53 ± 0.18	1.359 ± 0.0073	1.4 ± 0.19

Record cards, from the list above. Order of values: NP40-soluble protein abundance (concentration: 1mM)	NP40-soluble protein abundance (concentration: 2mM)	NP40-soluble protein abundance (concentration: 4mM)	NP40-soluble protein abundance (concentration: 6mM)	NP40-soluble protein abundance (concentration: 8mM)	NP40-soluble protein abundance (concentration: 10mM)
HABP4 (UniProt Q5JVS0) in the list: 1.26 ± 0.073	1.361 ± 0.0042	1.4 ± 0.1	1.53 ± 0.18	1.359 ± 0.0073	1.4 ± 0.19
UniProt Q5TCQ9 and related entries in the list: 1.11 ± 0.18	1.04 ± 0.21	1.05 ± 0.2	1.11 ± 0.25	1.03 ± 0.29	1.07 ± 0.16

— the supplement of paper PMC6411743
